In this assay the target is Vps34 (rat (endogenous in neonatal rat cardiomyocytes)) (UniProt O88763). Briefly: co-IP; endogenous Vps34 immunoprecipitated with a Vps34 antibody from NRCM lysates, immunoblot for Beclin1, Vps15, ATG14 and UVRAG; cells transfected with Adv-Ubc9 for 48 h, then hypoxic condition (OGD) for 6 h.

Sequences of proteins named here, by UniProt entry; tags and fusion partners are left off.
UniProt O88763: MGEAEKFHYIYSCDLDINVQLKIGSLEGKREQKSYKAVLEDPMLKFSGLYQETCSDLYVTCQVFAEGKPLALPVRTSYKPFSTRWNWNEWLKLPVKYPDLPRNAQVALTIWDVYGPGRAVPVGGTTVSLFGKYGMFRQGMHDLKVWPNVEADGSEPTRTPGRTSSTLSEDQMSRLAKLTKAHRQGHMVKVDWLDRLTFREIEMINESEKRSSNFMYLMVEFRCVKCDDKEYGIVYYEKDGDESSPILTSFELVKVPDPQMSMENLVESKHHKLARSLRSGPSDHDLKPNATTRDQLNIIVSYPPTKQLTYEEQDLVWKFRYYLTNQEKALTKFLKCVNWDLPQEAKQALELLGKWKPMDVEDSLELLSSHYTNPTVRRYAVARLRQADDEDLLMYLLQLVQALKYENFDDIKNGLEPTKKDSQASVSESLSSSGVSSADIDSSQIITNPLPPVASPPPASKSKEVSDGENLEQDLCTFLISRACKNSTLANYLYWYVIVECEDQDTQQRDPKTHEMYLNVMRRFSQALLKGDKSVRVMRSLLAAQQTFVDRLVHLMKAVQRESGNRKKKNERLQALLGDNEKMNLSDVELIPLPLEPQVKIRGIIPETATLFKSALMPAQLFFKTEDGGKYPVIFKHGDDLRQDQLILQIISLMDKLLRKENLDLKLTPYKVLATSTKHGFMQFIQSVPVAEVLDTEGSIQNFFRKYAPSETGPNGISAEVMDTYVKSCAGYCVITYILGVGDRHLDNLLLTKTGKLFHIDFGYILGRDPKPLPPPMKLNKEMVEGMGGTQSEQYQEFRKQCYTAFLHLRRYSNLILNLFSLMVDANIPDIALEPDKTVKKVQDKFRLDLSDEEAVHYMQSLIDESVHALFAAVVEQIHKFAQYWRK
UniProt Q91XJ1: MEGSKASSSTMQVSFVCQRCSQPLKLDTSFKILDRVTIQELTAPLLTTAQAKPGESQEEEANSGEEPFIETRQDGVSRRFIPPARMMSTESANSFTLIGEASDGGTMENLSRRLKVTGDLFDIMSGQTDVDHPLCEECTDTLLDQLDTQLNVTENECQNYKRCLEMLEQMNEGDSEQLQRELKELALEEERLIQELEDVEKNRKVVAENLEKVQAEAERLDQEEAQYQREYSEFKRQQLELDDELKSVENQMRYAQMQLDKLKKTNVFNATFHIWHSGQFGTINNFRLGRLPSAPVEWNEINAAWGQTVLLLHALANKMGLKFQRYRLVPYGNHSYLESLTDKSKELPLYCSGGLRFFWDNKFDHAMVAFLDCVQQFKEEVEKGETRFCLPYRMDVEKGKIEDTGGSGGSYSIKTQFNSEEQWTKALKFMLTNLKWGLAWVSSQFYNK
UniProt D4A4K3: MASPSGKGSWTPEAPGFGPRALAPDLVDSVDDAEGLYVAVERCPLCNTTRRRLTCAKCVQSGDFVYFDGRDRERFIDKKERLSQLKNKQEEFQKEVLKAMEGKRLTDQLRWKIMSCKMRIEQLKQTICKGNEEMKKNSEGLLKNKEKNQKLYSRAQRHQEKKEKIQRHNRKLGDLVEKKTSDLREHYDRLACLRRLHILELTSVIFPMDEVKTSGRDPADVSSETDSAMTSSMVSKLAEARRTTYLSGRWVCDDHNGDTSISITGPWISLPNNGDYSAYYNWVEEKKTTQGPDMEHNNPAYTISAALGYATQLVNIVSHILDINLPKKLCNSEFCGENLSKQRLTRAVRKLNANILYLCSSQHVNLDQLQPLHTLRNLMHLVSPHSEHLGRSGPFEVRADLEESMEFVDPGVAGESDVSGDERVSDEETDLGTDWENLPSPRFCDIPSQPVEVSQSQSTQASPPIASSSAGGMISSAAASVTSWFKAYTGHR
UniProt P0C0R5: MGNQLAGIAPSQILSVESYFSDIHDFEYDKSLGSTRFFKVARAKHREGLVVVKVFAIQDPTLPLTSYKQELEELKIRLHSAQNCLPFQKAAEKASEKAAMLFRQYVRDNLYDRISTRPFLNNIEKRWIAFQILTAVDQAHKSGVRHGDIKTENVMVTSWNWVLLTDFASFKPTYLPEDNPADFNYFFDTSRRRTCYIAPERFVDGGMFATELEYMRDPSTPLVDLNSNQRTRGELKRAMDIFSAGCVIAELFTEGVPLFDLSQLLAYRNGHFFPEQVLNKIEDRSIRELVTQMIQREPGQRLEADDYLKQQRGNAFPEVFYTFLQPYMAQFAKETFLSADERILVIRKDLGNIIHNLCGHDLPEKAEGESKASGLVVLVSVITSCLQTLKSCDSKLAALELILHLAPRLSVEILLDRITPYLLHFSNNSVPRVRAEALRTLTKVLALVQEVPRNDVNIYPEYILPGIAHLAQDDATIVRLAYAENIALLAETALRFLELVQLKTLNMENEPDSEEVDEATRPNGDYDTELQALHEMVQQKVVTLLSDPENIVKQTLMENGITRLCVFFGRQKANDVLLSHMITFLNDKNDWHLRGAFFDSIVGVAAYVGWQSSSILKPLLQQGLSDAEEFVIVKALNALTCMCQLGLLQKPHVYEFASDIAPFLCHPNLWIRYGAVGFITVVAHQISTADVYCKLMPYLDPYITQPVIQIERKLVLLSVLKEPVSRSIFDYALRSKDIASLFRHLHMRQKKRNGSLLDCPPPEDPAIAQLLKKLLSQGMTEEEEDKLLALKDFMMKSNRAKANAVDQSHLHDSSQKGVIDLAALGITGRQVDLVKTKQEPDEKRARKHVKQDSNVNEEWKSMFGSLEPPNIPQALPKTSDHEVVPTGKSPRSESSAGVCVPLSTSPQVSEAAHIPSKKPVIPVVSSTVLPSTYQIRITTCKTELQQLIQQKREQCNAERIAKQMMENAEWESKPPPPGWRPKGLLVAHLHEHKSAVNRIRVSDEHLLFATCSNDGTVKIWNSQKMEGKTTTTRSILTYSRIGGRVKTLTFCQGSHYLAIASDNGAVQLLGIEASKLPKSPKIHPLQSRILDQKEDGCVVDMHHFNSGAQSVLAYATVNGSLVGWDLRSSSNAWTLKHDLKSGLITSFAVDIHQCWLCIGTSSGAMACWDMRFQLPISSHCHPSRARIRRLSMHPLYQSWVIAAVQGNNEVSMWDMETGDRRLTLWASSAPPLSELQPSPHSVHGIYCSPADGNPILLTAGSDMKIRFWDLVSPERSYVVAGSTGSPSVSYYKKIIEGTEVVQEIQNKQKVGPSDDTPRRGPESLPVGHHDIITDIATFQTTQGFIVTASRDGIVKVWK

No constants are given. Whether binding was seen depends on the method and setting. Binding seen in cells or lysates may run through a third protein. Some binding calls cover weakened binding; strength is not graded here.

For the substance Beclin1 (from UniProt Q91XJ1 1-448), the binding entry was “binds”. Then ATG14 (from UniProt D4A4K3 1-492), with “binds”; and Vps15 (from UniProt P0C0R5 1-1358), with “binds”.

The values above are taken from publication PMC7522513.
